Values of other authors in PMC8185074, “Anchor extension: a structure-guided approach to design cyclic peptides targeting enzyme active sites” (Nature Communications, 2021).
pIC50: −log10 of the molar value.

Sequences of proteins named here, by UniProt entry; tags and fusion partners are left off. A change or cut given only in a name is not applied to a line headed by its entry.
UniProt O15379: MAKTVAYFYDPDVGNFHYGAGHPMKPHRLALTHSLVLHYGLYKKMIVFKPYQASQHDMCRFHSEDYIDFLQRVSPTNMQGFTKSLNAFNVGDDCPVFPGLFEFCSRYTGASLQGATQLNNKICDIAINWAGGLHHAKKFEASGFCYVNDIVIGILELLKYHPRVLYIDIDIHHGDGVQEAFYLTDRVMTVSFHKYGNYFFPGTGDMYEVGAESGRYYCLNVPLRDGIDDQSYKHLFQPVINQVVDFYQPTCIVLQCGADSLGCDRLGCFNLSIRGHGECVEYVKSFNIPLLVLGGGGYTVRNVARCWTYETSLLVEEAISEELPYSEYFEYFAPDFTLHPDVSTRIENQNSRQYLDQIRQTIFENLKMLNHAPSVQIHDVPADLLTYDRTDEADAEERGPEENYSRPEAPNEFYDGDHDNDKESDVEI

Molecular target: T1, HDAC3 (Homo sapiens, UniProt O15379)
T1 construct: purchased Reaction Biology Corporation (assay run by the CRO)
Details: read-out: HDAC3 inhibitory potency (quantity not named); cited from earlier work

Structure (SMILES): CCCCCCCC(=O)SCC/C=C/[C@@H]1CC(=O)NCc2nc(cs2)C2=N[C@@](C)(CS2)C(=O)N[C@@H](C(C)C)C(=O)O1 [Largazole]
- pIC50: ~8.52
